Measurements reported in paper PMC11967755.
These are yes or no findings as the source states them, for the method shown. Binding seen in cells or lysates may run through a third protein. Some binding calls cover weakened binding; strength is not graded here. For some of these results: Sequences can lack the tags named with a protein.

The chains behind the UniProt entries cited, without tags or fusion partners.
UniProt Q14318: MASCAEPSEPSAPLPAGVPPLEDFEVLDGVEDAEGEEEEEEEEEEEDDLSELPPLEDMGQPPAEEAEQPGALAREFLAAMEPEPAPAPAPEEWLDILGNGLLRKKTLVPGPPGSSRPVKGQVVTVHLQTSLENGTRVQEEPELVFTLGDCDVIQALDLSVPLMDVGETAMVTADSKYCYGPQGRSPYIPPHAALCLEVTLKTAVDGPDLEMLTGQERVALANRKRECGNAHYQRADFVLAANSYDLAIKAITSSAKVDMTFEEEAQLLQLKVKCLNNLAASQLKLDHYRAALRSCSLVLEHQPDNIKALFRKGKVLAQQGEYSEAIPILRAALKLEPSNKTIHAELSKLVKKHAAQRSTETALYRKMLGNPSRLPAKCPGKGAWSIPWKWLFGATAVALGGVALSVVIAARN

Columns and labels:
His-RNF25 = biological target: T1, His-RNF25 (UniProt Q96BH1); assay: co-IP; HEK-293T cells transfected with His-RNF25 and Flag-FKBP8, with circSATB1 or not (more of the complex with circSATB1); IP-His and IP-Flag with immunoblot; cells treated with 20 µM MG-132 for 8 h before harvesting
T1 sequence: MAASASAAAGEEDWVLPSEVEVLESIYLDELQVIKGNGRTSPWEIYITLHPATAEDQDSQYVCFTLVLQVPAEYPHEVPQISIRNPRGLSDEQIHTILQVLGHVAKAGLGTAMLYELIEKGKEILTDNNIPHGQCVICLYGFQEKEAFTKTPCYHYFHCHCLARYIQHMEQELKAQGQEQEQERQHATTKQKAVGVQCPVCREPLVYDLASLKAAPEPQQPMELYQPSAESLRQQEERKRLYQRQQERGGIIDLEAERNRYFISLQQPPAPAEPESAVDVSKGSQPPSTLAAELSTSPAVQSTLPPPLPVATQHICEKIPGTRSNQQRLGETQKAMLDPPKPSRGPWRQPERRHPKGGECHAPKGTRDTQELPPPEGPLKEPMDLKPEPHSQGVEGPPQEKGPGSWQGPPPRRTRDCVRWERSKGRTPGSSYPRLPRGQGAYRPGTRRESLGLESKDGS

[1] = biological target: T2, RNF25 (human (endogenous in DLD-1)) (UniProt Q96BH1); assay: co-IP; endogenous proteins in DLD-1 cells, IP-RNF25 and IP-FKBP8 with immunoblot (Pierce Co-Immunoprecipitation Kit); cells treated with 20 µM MG-132 for 8 h before harvesting; also in cells with NC or sh1-Circ (circSATB1 knock-down, less of the complex)
T2 sequence: T1 sequence

[2] = biological target: FKBP8 protein (human (endogenous in DLD-1)) (UniProt Q14318); assay: as above
Flag-FKBP8 = Flag-FKBP8 (UniProt Q14318); assay: co-IP; HEK-293T cells transfected with His-RNF25 and Flag-FKBP8, with circSATB1 or not (more of the complex with circSATB1); IP-His and IP-Flag with immunoblot; cells treated with 20 µM MG-132 for 8 h before harvesting

Molecule: Flag-FKBP8 (from UniProt Q14318 1-412)
- binding (His-RNF25): binds

Molecule: FKBP8 protein (from UniProt Q14318 1-412)
- binding [1]: binds

B1: RNF25 (enzyme, UniProt Q96BH1 1-459)
chain: T1 sequence
- binding [2]: binds

B2: His-RNF25 (enzyme, UniProt Q96BH1 1-459)
chain: T1 sequence
- binding (Flag-FKBP8): binds
